Measured values from the supplement of paper PMC4683952.
The other results are listed elsewhere or left out. No stated cut-off is given here; in the data, active = 2 or more and inactive = the rest. Repeats in this data set agree poorly, so a single value says little.

Tested on: Lgr5 (MarsCy1-Lgr5-EGFP, U2OS)
Experiment: cell-surface Lgr5 expression (SCi1 fluorescence, background-subtracted) relative to WT DMSO (fold of DMSO control); higher = more Lgr5 at the plasma membrane
Settings: U2OS MarsCy1-Lgr5-EGFP stable; treatment time: overnight; library: ActiProbe-5K (TimTec); 25 µM

Row | SMILES | cell-surface Lgr5 expression
1 | CCOC(=O)c1c(N)sc2c1CCC2 | inactive: 1.04
2 | Cc1nnc(SCC(=O)Nc2sc3c(c2C#N)CCC3)s1 | inactive: 1.13
3 | N=C(N)NS(=O)(=O)c1ccc(N)cc1 | inactive: 1.09
4 | CCn1c(Cl)nc2c1c(=O)n(C)c(=O)n2C | inactive: 1.14
5 | CN1c2ccccc2Oc2nnc(N3CCN(C(c4ccccc4)c4ccccc4)CC3)cc21 | inactive: 1.04
6 | N#Cc1c(SCC(N)=O)sc2c(O)nc(=O)[nH]c12 | inactive: 1.26
7 | N#Cc1c(SCc2ccccc2F)nsc1SCc1ccccc1F | inactive: 0.774
8 | c1ccc(-c2noc(CSc3nc(-c4ccccc4)c(-c4ccccc4)[nH]3)n2)cc1 | inactive: 1.16
9 | C=C(/C=C/C(=C\C)N1N=C(C)/C(=C\c2ccc(-c3ccc4c(c3)C(=O)NC4=O)o2)C1=O)CC | inactive: 1.26
10 | Nc1c2nc[nH]c2c(N)c2[nH]c(=O)c(=O)[nH]c12 | inactive: 0.999
11 | C=CCNc1nc2c(c(=O)[nH]c(=O)n2C)n1CCO | inactive: 1.38
12 | CSc1nc2ccc(S(=O)(=O)N(C)C)cc2s1 | inactive: 1.22
13 | CCn1cc(CCO)c2ccccc21 | inactive: 1.44
14 | Nn1c(-c2ccccn2)nnc1-c1ccccn1 | inactive: 1.25
15 | Cn1c(SCc2ccc3c(c2)OCO3)nnc1-c1ccccc1 | inactive: 1.75
16 | CC(C)CC(NC1CCS(=O)(=O)C1)C(=O)O (stereo not drawn) | inactive: 0.989
17 | CSc1ccc(/C=N/n2cnnc2)cc1 | inactive: 1.18
18 | Br.N=c1[nH]c(-c2ccc3c(c2)OCCO3)cs1 | inactive: 1.36
19 | CCOC(=O)/C(C#N)=C/Nc1ccsn1 | inactive: 0.99
20 | NCc1cc(C(F)(F)F)cc(C(F)(F)F)c1 | inactive: 1.26
21 | CCCCc1ccc(/C=C(\C#N)C(N)=S)s1 | inactive: 0.964
22 | Brc1ccc(Sc2ccc(Br)cc2)cc1 | inactive: 1.43
23 | N#Cc1cc2c(nc1SCc1ccncc1)CCC2 | inactive: 1.14
24 | FC(F)(F)Oc1ccc(Nc2nc3ccccc3o2)cc1 | inactive: 0.808
25 | CCCc1[nH]nc2c1C1(CCOC1C)C(C#N)=C(N)O2 (stereo not drawn) | inactive: 1.07

Arranged by formula weight (low to high): 3 of the compounds above.
Row | SMILES | cell-surface Lgr5 expression
13 | CCn1cc(CCO)c2ccccc21 | inactive: 1.44
17 | CSc1ccc(/C=N/n2cnnc2)cc1 | inactive: 1.18
20 | NCc1cc(C(F)(F)F)cc(C(F)(F)F)c1 | inactive: 1.26

Random excerpt: two compounds from above, in no set order.
Row | SMILES | cell-surface Lgr5 expression
23 | N#Cc1cc2c(nc1SCc1ccncc1)CCC2 | inactive: 1.14
20 | NCc1cc(C(F)(F)F)cc(C(F)(F)F)c1 | inactive: 1.26

Later entries.

Row | SMILES | cell-surface Lgr5 expression
26 | O=C1C2CC=C(Cl)CC2C(=O)N1c1nnc[nH]1 (stereo not drawn) | inactive: 1.1
27 | CS(=O)(=O)Nc1ccc(Br)cn1 | inactive: 1.23
28 | CCSc1ccc(Sc2ccc(SCC)s2)s1 | inactive: 1.49
29 | Fc1cccc(Nc2nc(Cl)nc(Cl)n2)c1 | inactive: 1.16
30 | C#CC[N+](C)(C)Cc1ccccc1.[Br-] | inactive: 1.61
31 | O=C1C2C3C=CC(C3)C2C(=O)N1c1ccc(F)cc1 (stereo not drawn) | inactive: 1.15
32 | C(S\C(=C(\C#N)C#N)NCC=C)c1ccccn1 | inactive: 1.33
33 | Clc1cc(-c2ccccc2)nc(-c2ccc(Br)cc2)n1 | inactive: 1.04
34 | Cn1nnc(Sc2ccc([N+](=O)[O-])cc2)n1 | inactive: 1.18
35 | CC(C)C1=C2CCCCC2NC(=O)N1 (stereo not drawn) | inactive: 1.18
36 | c1cc2c(cc1C1=Nn3cnnc3SC1)OCCO2 | inactive: 1.16
37 | O=[N+]([O-])c1cc(Br)cc2cc[nH]c12 | inactive: 1.22
38 | [O-]/[N+](=N\c1ccc(Cl)cc1)c1ccc(Cl)cc1 | inactive: 1.23
39 | O=C(CCC1CCCC1)N1CCc2cc(Br)ccc21 | inactive: 1.27
40 | c1ccc(N2CCN(CN3CCN(c4ccccc4)CC3)CC2)cc1 | inactive: 1.15
41 | CN(C)CCNC(=O)c1scc2c1CCCC2 | inactive: 0.998
42 | c1ccc(OCCSc2nnc3[nH]cnn23)cc1 | inactive: 0.81
43 | O=C(Nc1nnc(C2CCCC2)s1)c1ccco1 | inactive: 1.12
44 | Nc1nnc(SCC(=O)N2CCCC2)s1 | inactive: 1
45 | Cn1cnc([N+](=O)[O-])c1N1CCOCC1 | inactive: 1.23
46 | Nn1c(S)nnc1CO | inactive: 1.13
47 | O=C1CSc2ccc(NC(=O)C3CCCC3)cc2N1 | inactive: 1.28
48 | O=C1OC(C2OC(=O)c3ccccc32)c2ccccc21 (stereo not drawn) | inactive: 1.33
49 | N/N=C1/CCCc2c1[nH]c1ccc(C(F)(F)F)cc21 | inactive: 1.15
50 | COc1ccc2ccc(=O)oc2c1OC | inactive: 0.989

Row | SMILES | cell-surface Lgr5 expression
51 | COc1sc(S(C)(=O)=O)cc1S(C)(=O)=O | inactive: 1.01
52 | CC1(C)OC(=O)N(CCCN2C(=O)OC(C)(C)C2(C)O)C1(C)O (stereo not drawn) | inactive: 1.11
53 | O=S(=O)(NCC1CCCO1)c1ccccc1 (stereo not drawn) | inactive: 1.16
54 | CN(C)S(=O)(=O)N1CCN(c2nc3ccccc3o2)CC1 | inactive: 1.28
55 | COc1cc(-c2nnc(CSc3ncccn3)o2)cc(OC)c1OC | inactive: 1.44
56 | O=S(=O)(Nc1ncccn1)c1ccccc1 | inactive: 1.13
57 | N#CCNS(=O)(=O)c1ccc(Br)cc1 | inactive: 1.05
58 | CCn1c(N)c(C(N)=O)sc1=S | inactive: 1.12
59 | Nc1ccc2[nH]c(C(F)(F)F)nc2c1 | inactive: 1.08
60 | O=c1[nH]nc2nc(-c3ccccc3)cnn12 | inactive: 1.33
61 | Sc1nc2ccccc2c2c1CCC2 | inactive: 0.924
62 | CC1(C)C(c2nc(-c3ccc(Br)cc3)no2)C1(C)C | inactive: 1.14
63 | Nc1cc[n+](Cc2ccccc2)cc1.[Br-] | inactive: 1.01
64 | CC(C(=O)n1cc(Cl)cn1)n1cc([N+](=O)[O-])cn1 (stereo not drawn) | inactive: 0.999
65 | Cn1c(=O)[nH]c2c(N)nccc21 | inactive: 0.922
66 | N#CC1=C(N)SC(N)=C(C#N)C1c1cccs1 | inactive: 1.43
67 | CN(C)/C=C1\C(=O)N(c2nc3ccccc3s2)N=C1C(F)(F)F | inactive: 1.3
68 | Nc1c(Cl)nsc1Cl | inactive: 1.05
69 | N#CC1=C(N)C(C#N)(C#N)C2=CCCC2C12CCCCC2 (stereo not drawn) | inactive: 0.942
70 | C=CCOc1nc2c(c(=O)n(C)c(=O)n2C)n1C | inactive: 1.37
71 | COC(=O)C(Nc1nccs1)(OC)C(F)(F)F (stereo not drawn) | inactive: 1.03
72 | C=CCn1c(-c2cccnc2)n[nH]c1=S | inactive: 1.23
73 | Cc1ccc(C2C(C(=O)c3cccs3)=C(O)C(=O)N2CCN(C)C)o1 (stereo not drawn) | inactive: 1.1
